PubChem BioAssay AID743454 – Peter MacCallum Cancer Centre, 2014
Test: 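Search for knock-downs that restore vorinostat killing in resistant colon cancer cells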 (primary screen). Cell system: human HCT116-VR colon cancer cells, selected for vorinostat resistance. Reagent: siRNA pool against human genes, 40 nM siRNA pool. Timing: vorinostat for 24 h, read-out about 72 h after transfection. Conditions: vorinostat at 2.5 µM final. Detection: 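Cell viability by CellTiter-Fluor and caspase 3/7 activity by luminescence, each scaled to mock wells per plate, duplicates averaged, then robust z-scored over all plates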. Direction: viability robust z-score: higher = more viable cells than screen typical; caspase robust z-score: higher = more caspase 3/7 activity than screen typical. Hit rule: 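a knock-down is a hit when classed RV1 or RV2 for lowered viability, or CA1 or CA2 for caspase activation; those lethal without drug were dropped; hits were retested singly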.
The whole screen tested about 18,000 reagents; below is an unselected part. 450 of all reagents (2.5%) were called active. 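Single biological run; no consistent viability z cut-off exists, so the class columns, not z-scores, define the calls.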

ITGB6 (integrin subunit beta 6): viability hit class = no change; caspase hit class = no change; viability robust z-score = -0.58; caspase robust z-score = 1.55; call = inactive
GCM2 (GCM transcription factor 2): viability hit class = no change; caspase hit class = no change; viability robust z-score = 1.17; caspase robust z-score = 0.52; call = inactive
EPS8L1 (EPS8 signaling adaptor L1): viability hit class = no change; caspase hit class = no change; viability robust z-score = -0.73; caspase robust z-score = 0.3; call = inactive
GNAO1 (G protein subunit alpha o1): viability hit class = no change; caspase hit class = no change; viability robust z-score = 0.96; caspase robust z-score = -0.66; call = inactive
ITGAV (integrin subunit alpha V): viability hit class = no change; caspase hit class = no change; viability robust z-score = 0.22; caspase robust z-score = -0.88; call = inactive
PPM1B (protein phosphatase, Mg2+/Mn2+ dependent 1B): viability hit class = no change; caspase hit class = no change; viability robust z-score = -0.92; caspase robust z-score = -0.72; call = inactive
NDRG2 (NDRG family member 2): viability hit class = no change; caspase hit class = no change; viability robust z-score = 0.38; caspase robust z-score = 0.61; call = inactive
LRRD1 (leucine rich repeats and death domain containing 1): viability hit class = no change; caspase hit class = no change; viability robust z-score = 2.15; caspase robust z-score = -0.06; call = inactive
PRADC1 (protease associated domain containing 1): viability hit class = no change; caspase hit class = no change; viability robust z-score = -0.41; caspase robust z-score = 0.02; call = inactive
RNF166 (ring finger protein 166): viability hit class = no change; caspase hit class = no change; viability robust z-score = 0.36; caspase robust z-score = 0.64; call = inactive
CCDC73 (coiled-coil domain containing 73): viability hit class = no change; caspase hit class = no change; viability robust z-score = 0.24; caspase robust z-score = 0.86; call = inactive

No new results follow: entries from further up.
LRRD1 (leucine rich repeats and death domain containing 1): viability hit class = no change; caspase hit class = no change; viability robust z-score = 2.15; caspase robust z-score = -0.06; call = inactive
PRADC1 (protease associated domain containing 1): viability hit class = no change; caspase hit class = no change; viability robust z-score = -0.41; caspase robust z-score = 0.02; call = inactive
RNF166 (ring finger protein 166): viability hit class = no change; caspase hit class = no change; viability robust z-score = 0.36; caspase robust z-score = 0.64; call = inactive

Continued.
PRAMEF2 (PRAME family member 2): viability hit class = no change; caspase hit class = no change; viability robust z-score = 1.54; caspase robust z-score = -0.04; call = inactive
TDP2 (tyrosyl-DNA phosphodiesterase 2): viability hit class = no change; caspase hit class = CA1 (caspase activation); viability robust z-score = 0.46; caspase robust z-score = 7.67; call = active
CHD1L (chromodomain helicase DNA binding protein 1 like): viability hit class = no change; caspase hit class = no change; viability robust z-score = 0.5; caspase robust z-score = -0.74; call = inactive
GPR153 (G protein-coupled receptor 153): viability hit class = no change; caspase hit class = no change; viability robust z-score = -2.37; caspase robust z-score = 2.07; call = inactive
SAT1 (spermidine/spermine N1-acetyltransferase 1): viability hit class = no change; caspase hit class = no change; viability robust z-score = -0.3; caspase robust z-score = 3.46; call = inactive
CPM (carboxypeptidase M): viability hit class = no change; caspase hit class = no change; viability robust z-score = -0.08; caspase robust z-score = -1; call = inactive
LHX2 (LIM homeobox 2): viability hit class = no change; caspase hit class = no change; viability robust z-score = 1.17; caspase robust z-score = 0.3; call = inactive
APRT (adenine phosphoribosyltransferase): viability hit class = no change; caspase hit class = no change; viability robust z-score = 0.88; caspase robust z-score = 2.25; call = inactive
GPCPD1 (glycerophosphocholine phosphodiesterase 1): viability hit class = no change; caspase hit class = no change; viability robust z-score = 1.26; caspase robust z-score = -0.16; call = inactive
ZNF665 (zinc finger protein 665): viability hit class = no change; caspase hit class = no change; viability robust z-score = -0.71; caspase robust z-score = -1.23; call = inactive
